Measurements from paper PMC5227109.
These are yes or no findings as the source states them, for the method shown. In cells and extracts the contact can be indirect. Some entries that bind do so weakly or less than the wild type.

Sequences of proteins named here, by UniProt entry; tags and fusion partners are left off. A change or cut given only in a name is not applied to a line headed by its entry.
UniProt P32908: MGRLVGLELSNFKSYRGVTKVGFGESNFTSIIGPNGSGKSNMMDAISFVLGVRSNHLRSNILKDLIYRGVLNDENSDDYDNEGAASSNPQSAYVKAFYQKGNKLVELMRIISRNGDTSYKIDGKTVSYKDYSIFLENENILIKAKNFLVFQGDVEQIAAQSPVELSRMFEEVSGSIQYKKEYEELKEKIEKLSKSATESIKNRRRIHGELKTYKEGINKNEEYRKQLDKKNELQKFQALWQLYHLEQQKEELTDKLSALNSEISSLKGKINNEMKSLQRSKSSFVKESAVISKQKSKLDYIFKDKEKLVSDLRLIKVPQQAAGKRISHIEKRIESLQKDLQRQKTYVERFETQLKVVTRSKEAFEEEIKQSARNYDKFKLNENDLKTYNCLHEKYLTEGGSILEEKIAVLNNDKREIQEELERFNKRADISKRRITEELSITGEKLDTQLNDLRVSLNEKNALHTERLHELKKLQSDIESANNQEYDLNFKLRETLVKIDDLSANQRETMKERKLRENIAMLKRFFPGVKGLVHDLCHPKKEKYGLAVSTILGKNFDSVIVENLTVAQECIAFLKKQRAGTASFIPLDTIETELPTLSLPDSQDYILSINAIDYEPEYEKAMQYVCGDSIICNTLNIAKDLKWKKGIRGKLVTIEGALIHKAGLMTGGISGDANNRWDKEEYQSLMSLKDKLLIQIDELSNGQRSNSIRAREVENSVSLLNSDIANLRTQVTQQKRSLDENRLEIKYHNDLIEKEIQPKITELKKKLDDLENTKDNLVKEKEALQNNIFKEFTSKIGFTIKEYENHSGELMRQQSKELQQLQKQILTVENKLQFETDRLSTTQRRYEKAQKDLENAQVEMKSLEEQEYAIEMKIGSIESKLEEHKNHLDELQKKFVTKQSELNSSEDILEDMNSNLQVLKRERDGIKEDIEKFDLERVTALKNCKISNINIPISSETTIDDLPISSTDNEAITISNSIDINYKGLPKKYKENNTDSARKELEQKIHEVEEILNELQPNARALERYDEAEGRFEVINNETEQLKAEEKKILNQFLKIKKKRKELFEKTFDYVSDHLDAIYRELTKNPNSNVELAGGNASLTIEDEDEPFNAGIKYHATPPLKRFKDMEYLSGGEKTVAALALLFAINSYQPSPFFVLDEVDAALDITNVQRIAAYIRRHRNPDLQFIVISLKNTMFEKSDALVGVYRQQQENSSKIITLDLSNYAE
UniProt P47037: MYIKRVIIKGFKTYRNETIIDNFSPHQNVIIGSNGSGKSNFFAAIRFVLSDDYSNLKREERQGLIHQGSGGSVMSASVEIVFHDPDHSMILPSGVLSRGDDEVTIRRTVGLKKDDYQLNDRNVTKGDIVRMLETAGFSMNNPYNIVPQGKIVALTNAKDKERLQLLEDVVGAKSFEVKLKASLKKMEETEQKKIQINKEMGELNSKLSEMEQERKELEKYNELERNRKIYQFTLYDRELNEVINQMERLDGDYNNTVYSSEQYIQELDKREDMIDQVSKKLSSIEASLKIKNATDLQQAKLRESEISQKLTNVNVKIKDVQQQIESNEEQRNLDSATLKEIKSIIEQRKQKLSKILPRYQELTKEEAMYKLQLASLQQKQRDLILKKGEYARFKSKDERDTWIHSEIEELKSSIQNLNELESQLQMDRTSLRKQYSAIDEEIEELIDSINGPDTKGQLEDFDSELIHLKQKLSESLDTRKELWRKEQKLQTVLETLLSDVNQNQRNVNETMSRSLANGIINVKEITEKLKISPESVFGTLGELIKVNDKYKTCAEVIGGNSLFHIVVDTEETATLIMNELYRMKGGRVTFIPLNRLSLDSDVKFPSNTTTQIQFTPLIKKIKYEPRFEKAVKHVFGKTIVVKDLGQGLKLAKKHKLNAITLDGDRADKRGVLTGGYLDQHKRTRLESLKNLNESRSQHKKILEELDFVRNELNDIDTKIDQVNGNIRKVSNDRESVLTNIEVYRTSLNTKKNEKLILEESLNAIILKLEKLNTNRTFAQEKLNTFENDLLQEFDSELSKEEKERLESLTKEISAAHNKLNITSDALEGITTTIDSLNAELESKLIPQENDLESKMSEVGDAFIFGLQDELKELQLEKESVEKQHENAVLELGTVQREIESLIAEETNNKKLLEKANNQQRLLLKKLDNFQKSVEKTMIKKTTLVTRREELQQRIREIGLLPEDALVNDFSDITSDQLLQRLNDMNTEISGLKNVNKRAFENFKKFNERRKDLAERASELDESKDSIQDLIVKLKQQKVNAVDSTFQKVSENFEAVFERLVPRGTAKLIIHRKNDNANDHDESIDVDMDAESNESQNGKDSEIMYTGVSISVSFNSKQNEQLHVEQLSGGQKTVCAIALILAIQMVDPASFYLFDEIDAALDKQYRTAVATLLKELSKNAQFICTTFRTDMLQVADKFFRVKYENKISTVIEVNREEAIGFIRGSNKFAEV
UniProt Q12158: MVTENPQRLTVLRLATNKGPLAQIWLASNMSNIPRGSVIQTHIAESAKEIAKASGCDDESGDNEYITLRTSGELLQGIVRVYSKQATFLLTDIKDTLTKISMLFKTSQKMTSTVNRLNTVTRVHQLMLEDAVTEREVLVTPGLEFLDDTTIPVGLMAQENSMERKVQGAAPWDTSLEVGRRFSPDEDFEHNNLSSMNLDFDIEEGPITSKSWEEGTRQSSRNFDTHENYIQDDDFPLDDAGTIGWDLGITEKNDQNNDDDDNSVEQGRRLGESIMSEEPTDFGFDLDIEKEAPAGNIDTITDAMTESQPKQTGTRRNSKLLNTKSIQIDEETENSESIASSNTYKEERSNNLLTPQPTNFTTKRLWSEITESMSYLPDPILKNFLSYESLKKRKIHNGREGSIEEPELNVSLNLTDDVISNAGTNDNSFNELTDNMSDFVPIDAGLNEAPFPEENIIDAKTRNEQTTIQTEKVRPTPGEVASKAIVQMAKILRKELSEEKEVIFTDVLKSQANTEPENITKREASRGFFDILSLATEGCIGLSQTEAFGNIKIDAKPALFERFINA
UniProt P40541: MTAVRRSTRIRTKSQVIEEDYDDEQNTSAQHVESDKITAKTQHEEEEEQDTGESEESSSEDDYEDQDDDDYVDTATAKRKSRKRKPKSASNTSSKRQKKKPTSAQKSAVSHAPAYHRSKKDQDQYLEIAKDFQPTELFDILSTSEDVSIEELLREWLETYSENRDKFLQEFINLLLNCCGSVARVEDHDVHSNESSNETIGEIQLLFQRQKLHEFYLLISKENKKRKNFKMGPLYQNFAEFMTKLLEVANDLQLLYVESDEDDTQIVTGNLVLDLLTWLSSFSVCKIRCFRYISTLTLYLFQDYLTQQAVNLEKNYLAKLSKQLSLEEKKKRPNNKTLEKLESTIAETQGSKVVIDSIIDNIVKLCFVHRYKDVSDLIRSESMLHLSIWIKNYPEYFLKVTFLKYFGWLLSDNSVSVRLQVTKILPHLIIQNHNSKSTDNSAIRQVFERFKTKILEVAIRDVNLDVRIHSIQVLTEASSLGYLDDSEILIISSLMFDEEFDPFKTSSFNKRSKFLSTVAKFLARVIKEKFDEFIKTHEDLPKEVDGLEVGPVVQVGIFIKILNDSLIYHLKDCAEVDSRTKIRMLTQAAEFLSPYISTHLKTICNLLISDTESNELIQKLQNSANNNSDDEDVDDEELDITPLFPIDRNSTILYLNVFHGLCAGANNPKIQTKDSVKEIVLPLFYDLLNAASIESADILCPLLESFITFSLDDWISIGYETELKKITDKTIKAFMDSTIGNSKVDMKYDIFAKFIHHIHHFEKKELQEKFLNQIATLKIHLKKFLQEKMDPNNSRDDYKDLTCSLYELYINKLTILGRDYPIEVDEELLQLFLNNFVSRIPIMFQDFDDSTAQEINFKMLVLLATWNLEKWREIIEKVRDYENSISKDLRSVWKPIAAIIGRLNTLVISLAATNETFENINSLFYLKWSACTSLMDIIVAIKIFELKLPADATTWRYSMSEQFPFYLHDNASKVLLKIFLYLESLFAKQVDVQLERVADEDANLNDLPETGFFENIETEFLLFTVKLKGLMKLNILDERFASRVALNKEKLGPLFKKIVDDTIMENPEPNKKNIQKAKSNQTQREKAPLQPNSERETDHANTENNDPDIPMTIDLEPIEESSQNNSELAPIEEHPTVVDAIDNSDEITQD
UniProt Q04002: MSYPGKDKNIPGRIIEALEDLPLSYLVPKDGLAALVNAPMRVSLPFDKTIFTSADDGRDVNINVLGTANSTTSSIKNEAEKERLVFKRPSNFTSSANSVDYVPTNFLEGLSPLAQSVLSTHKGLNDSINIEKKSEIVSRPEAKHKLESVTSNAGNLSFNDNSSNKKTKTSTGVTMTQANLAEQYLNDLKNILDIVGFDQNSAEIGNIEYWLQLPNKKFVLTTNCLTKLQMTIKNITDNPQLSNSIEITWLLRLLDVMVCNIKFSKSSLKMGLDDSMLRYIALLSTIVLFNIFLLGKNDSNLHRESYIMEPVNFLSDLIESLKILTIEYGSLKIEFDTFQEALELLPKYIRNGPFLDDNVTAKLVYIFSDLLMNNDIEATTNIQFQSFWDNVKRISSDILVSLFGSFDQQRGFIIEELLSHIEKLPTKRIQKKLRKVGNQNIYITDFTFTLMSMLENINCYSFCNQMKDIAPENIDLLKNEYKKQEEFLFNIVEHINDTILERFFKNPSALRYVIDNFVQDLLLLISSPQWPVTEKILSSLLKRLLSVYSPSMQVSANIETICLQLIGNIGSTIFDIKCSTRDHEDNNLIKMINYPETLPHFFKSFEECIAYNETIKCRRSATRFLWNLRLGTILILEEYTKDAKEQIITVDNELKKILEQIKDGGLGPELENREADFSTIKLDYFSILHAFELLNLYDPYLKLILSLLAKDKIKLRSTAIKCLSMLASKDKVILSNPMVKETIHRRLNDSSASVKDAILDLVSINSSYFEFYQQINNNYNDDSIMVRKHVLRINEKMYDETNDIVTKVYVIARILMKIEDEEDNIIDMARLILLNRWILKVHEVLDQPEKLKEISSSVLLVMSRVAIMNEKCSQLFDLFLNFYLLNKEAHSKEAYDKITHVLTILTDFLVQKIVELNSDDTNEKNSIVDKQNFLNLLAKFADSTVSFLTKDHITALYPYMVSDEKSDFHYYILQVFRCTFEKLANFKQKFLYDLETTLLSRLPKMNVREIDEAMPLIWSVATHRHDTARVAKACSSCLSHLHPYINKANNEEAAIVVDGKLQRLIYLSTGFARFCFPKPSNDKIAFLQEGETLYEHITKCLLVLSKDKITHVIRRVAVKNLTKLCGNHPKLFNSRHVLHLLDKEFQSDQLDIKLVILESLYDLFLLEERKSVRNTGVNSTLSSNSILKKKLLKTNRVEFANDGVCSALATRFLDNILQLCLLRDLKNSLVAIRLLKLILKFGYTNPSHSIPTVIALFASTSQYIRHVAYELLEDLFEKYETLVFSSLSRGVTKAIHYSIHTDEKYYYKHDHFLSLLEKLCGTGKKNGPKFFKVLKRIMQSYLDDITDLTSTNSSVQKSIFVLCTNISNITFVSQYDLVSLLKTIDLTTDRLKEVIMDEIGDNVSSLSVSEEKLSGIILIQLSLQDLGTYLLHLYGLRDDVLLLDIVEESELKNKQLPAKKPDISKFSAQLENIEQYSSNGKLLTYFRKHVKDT

Biological target: cohesin in S. cerevisiae cells (S. cerevisiae (endogenous in yeast cells)) (UniProt P32908+P47037+Q12158+P40541)
Test: co-IP; S. cerevisiae cell extracts in EBXG buffer (50 mM HEPES pH 8.0, 100 mM KCl, 2.5 mM MgCl2, 10% glycerol, 0.25% Triton X-100, 1 mM DTT); antibody (not named), Protein A Dynabeads

| binding | Substance |
| --- | --- |
| binds | Scc2–Scc4 in S. cerevisiae cells, wild type SCC2 (from UniProt Q04002 1-1493; P40090 1-624) (complex) |
| binds | Scc2–Scc4 in S. cerevisiae cells, SCC2 Group II mutant (K788A/R792A) (from UniProt Q04002 1-1493; P40090 1-624) (complex) |
| binds | Scc2–Scc4 in S. cerevisiae cells, SCC2 Group III mutant (E821G/E822S/D823A) (from UniProt Q04002 1-1493; P40090 1-624) (complex) |
